Assay results reported in the supplement of paper PMC8728848.
The other results are listed elsewhere or left out.

What was measured:
Assay in all cases: glycan array binding signal (z-score within array); higher = stronger binding
Conditions in all cases: glycan notation: IUPAC condensed, linker removed
[1] = molecular target: GlcNAc(b1-3)Gal(b1-4)GlcNAc(b1-3)GalNAc
Method in brief: (§1)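 Glycan array binding is given as a within-array Z-score, which can be read as non-binding when negative. The arrays, 3228 of them, came from the Consortium for Functional Glycomics database and were retained only where the protein sequence was available. Z-scores were averaged across arrays of the same protein sequence at different concentrations or buffers and across linkers.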

[2] = molecular target: GlcNAc(b1-3)Gal(b1-4)GlcNAc(b1-3)[GlcNAc(b1-3)Gal(b1-4)GlcNAc(b1-3)]GalNAc
Method in brief: as §1

[3] = molecular target: GlcNAc(b1-3)Gal(b1-4)GlcNAc(b1-6)[Gal(b1-3)]GalNAc
Method in brief: as §1

[4] = molecular target: GlcNAc(b1-3)Gal(b1-4)GlcNAc(b1-6)[GlcNAc(b1-3)Gal(b1-3)]GalNAc
Method in brief: as §1

[5] = molecular target: GlcNAc(b1-3)Gal(b1-4)GlcNAc(b1-6)[GlcNAc(b1-3)]Gal(b1-4)GlcNAc
Method in brief: as §1

GlcNAc(b1-3)GalNAc = molecular target: GlcNAc(b1-3)GalNAc
Method in brief: as §1

GlcNAc(b1-3)Man = molecular target: GlcNAc(b1-3)Man
Method in brief: as §1

[6] = molecular target: GlcNAc(b1-3)[GlcNAc(b1-4)][GlcNAc(b1-6)]GlcNAc
Method in brief: as §1

[7] = molecular target: GlcNAc(b1-3)[GlcNAc(b1-6)]Gal(b1-4)GlcNAc
Method in brief: as §1

[8] = molecular target: GlcNAc(b1-3)[GlcNAc(b1-6)]GalNAc
Method in brief: as §1

[9] = molecular target: GlcNAc(b1-4)Gal(b1-4)GlcNAc
Method in brief: as §1

GlcNAc(b1-4)GlcNAc = molecular target: GlcNAc(b1-4)GlcNAc
Method in brief: as §1

[10] = molecular target: GlcNAc(b1-4)GlcNAc(b1-4)GlcNAc
Method in brief: as §1

[11] = molecular target: GlcNAc(b1-4)GlcNAc(b1-4)GlcNAc(b1-4)GlcNAc(b1-4)GlcNAc
Method in brief: as §1

[12] = molecular target: GlcNAc(b1-4)GlcNAc(b1-4)GlcNAc(b1-4)GlcNAc(b1-4)GlcNAc(b1-4)GlcNAc
Method in brief: as §1

[13] = molecular target: GlcNAc(b1-4)[GlcNAc(b1-6)]GalNAc
Method in brief: as §1

[14] = molecular target: GlcNAc(b1-6)Gal(b1-4)GlcNAc
Method in brief: as §1

GlcNAc(b1-6)GalNAc = molecular target: GlcNAc(b1-6)GalNAc
Method in brief: as §1

[15] = molecular target: GlcNAc6S(b1-3)Gal(b1-4)GlcNAc
Method in brief: as §1

Kdn(a2-3)Gal(b1-3)GalNAc = molecular target: Kdn(a2-3)Gal(b1-3)GalNAc
Method in brief: as §1

Kdn(a2-3)Gal(b1-3)GlcNAc = molecular target: Kdn(a2-3)Gal(b1-3)GlcNAc
Method in brief: as §1

Kdn(a2-3)Gal(b1-4)Glc = molecular target: Kdn(a2-3)Gal(b1-4)Glc
Method in brief: as §1

Kdn(a2-3)Gal(b1-4)GlcNAc = molecular target: Kdn(a2-3)Gal(b1-4)GlcNAc
Method in brief: as §1

[16] = molecular target: Kdn(a2-3)Gal(b1-4)[Fuc(a1-3)]GlcNAc
Method in brief: as §1

Kdn(a2-6)Gal(b1-4)GlcNAc = molecular target: Kdn(a2-6)Gal(b1-4)GlcNAc
Method in brief: as §1

[17] = molecular target: Man(a1-2)Man(a1-2)Man(a1-3)Man
Method in brief: as §1

[18] = molecular target: Man(a1-2)Man(a1-2)Man(a1-6)[Man(a1-3)]Man
Method in brief: as §1

Man(a1-2)Man(a1-3)Man = molecular target: Man(a1-2)Man(a1-3)Man
Method in brief: as §1

[19] = molecular target: Man(a1-2)Man(a1-3)[Man(a1-2)Man(a1-6)]Man
Method in brief: as §1

[20] = molecular target: Man(a1-2)Man(a1-3)[Man(a1-2)Man(a1-6)]Man(a1-6)[Man(a1-2)Man(a1-2)Man(a1-3)]Man
Method in brief: as §1

B1: Blon0732mut (Bifidobacterium longum) (protein)
chain: MPTSEHKADDATRHLTLIPAPVTLEYTHGTALIGPLVTIEDADQSWETLPIEQLSDELRHRYGVTVLRRRTHGTVISLGLDSRLAHDEYTLDVSESEGIRVRGGGESGLRYGLQTLRQIIGQTSRAIPCLHIQDKPAFAVRAYSLDVTRGRVPTMEFLTWFVDQLALYKYNQFQLYVEHAFAFVELSEAWRGTDPLTAADITYLDEYCARRGIELVPSLATFGHMYMNLRTREHRGLGEFPEDADRPFSFIERMEHHTLNAADPKAHDFASRLIEEYAPLFRSKSFNIGGNETFDLGRGRSAQDAPEAGRDELYAGFVRDLCETLARHGRQPMLWADIALESPRTMDLLPGDITMLNWMYEPQIDESKIQTIATQGRRQFVCPAVRAWSRFFPDYAGAWLNTYHMALAGTKYDAEGMVVTDWGDYGHVNDPRLSVPGLCYGAQNAWNPIEIDAHEMNRRISALVYGDESGRIMDCLARIDSDGVSFPWDLAVQVLELEYGSGTGALNMDVAACMERSSGGKLTLDRTLGCDDARRRMLQWNRERIERRRDCDQVLRDCGDAFAGLDKGGLTAEFLSVMLDGQRLFNELGEELLALADGKDVGSGANRLAADLELWFERYRAQWLSVGRHAELARIAHVVWSLADILRRGAL
- glycan array binding signal (z-score) [1]: -0.579
- glycan array binding signal (z-score) [2]: -0.125
- glycan array binding signal (z-score) [3]: -0.135
- glycan array binding signal (z-score) [4]: -0.19
- glycan array binding signal (z-score) [5]: -0.46
- glycan array binding signal (z-score) (GlcNAc(b1-3)GalNAc): -0.199
- glycan array binding signal (z-score) (GlcNAc(b1-3)Man): -0.762
- glycan array binding signal (z-score) [6]: 5.26
- glycan array binding signal (z-score) [7]: -0.552
- glycan array binding signal (z-score) [8]: -0.405
- glycan array binding signal (z-score) [9]: 0.339
- glycan array binding signal (z-score) (GlcNAc(b1-4)GlcNAc): -0.319
- glycan array binding signal (z-score) [10]: -0.223
- glycan array binding signal (z-score) [11]: -0.692
- glycan array binding signal (z-score) [12]: -0.019
- glycan array binding signal (z-score) [13]: -0.758
- glycan array binding signal (z-score) [14]: 0.074
- glycan array binding signal (z-score) (GlcNAc(b1-6)GalNAc): 0.164
- glycan array binding signal (z-score) [15]: 0.664
- glycan array binding signal (z-score) (Kdn(a2-3)Gal(b1-3)GalNAc): -0.565
- glycan array binding signal (z-score) (Kdn(a2-3)Gal(b1-3)GlcNAc): -0.602
- glycan array binding signal (z-score) (Kdn(a2-3)Gal(b1-4)Glc): -0.647
- glycan array binding signal (z-score) (Kdn(a2-3)Gal(b1-4)GlcNAc): 0.494
- glycan array binding signal (z-score) [16]: 0.017
- glycan array binding signal (z-score) (Kdn(a2-6)Gal(b1-4)GlcNAc): -0.04
- glycan array binding signal (z-score) [17]: 0.059
- glycan array binding signal (z-score) [18]: 0.626
- glycan array binding signal (z-score) (Man(a1-2)Man(a1-3)Man): -0.346
- glycan array binding signal (z-score) [19]: -0.328
- glycan array binding signal (z-score) [20]: -0.024
